According to paper PMC12574955, “The Ync13–Rga7–Rng10 complex selectively coordinates secretory vesicle trafficking and secondary septum formation during cytokinesis” (PLOS Biology, 2025):
No constants are given. Whether binding was seen depends on the method and setting. In cells and extracts the contact can be indirect. These calls come from enrichment with a bait or labelling near it, and not all partners need be listed. Sequences can lack the tags named with a protein.

Molecular target: T1, Ync13-3FLAG (Schizosaccharomyces pombe) (UniProt O13683)
T1 sequence: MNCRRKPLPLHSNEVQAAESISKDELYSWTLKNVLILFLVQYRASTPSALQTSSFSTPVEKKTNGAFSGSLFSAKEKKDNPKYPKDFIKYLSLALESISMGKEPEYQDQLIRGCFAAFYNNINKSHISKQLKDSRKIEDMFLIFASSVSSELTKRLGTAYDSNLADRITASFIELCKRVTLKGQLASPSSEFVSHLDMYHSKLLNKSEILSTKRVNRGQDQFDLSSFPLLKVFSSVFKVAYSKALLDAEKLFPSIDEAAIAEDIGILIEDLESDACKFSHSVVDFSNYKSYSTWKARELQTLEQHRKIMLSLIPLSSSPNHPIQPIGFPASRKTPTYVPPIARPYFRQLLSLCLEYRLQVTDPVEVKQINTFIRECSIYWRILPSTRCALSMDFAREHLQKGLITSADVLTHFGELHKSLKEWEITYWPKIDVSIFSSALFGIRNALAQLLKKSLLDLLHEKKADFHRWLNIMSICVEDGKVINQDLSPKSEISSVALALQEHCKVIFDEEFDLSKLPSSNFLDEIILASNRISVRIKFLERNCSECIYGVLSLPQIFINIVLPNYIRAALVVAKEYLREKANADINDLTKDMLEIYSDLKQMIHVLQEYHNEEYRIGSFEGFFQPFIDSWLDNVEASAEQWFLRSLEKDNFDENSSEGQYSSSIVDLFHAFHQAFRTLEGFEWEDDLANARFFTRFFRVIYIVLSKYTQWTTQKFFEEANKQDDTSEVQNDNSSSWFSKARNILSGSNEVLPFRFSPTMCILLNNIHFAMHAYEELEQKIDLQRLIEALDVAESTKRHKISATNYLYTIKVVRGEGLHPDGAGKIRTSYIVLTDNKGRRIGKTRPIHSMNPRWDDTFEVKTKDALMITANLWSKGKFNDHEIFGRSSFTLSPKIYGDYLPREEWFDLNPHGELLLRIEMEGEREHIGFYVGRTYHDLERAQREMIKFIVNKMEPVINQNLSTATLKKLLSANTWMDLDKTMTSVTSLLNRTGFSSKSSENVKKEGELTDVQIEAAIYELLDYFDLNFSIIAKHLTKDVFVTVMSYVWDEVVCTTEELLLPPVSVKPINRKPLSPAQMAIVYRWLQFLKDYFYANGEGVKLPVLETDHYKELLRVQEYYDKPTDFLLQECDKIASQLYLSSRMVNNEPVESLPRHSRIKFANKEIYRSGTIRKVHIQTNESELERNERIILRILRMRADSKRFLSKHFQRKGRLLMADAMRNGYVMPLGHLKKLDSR
Assay: affinity purification with mass spectrometry; Ync13-3xFLAG from S. pombe cell extract on anti-FLAG M2 affinity gel, 300 mM NaCl, eluted with 3xFLAG peptide; gel bands except Ync13 analysed by mass spectrometry

binding: binds
B1: Rga7-6xHis (natural protein, Schizosaccharomyces pombe, UniProt O94466 1-695, looked up)
chain: MLSAPSSSTTPASPPTSPPNTTSSDDFAVLKEPKVEAILNSELGLAILNDRIKDYLLTCKELAGFFKKRSILEEESGKNLQKLAKSYLETFQSKHHSPQSFSASVITSMEIHEQLANHSLTLQKTLSAFSDQVIEFHKNAERKRKSIKEYAKKQENAYLEAVMQMDKSKSRFKGAETEYNRALDNKNTGDSQKKVGFFKPKSNAQLTKLEDEARLKAENAESDMHSKIENAQNVQKQLLCIHRPNYIKQFFSLQREIESSLIANYLRYTKLCESNTLLNGLTIRPQKPTPTNCGLQHALDNINANTDFVQYVLHASIKHEDNKNPTDASKTKIIQPPSSYGTGSSAGKTNPPVNPTIKVTAAIPSPLQNTNPAPSTFPNPSVASPAFPNSSTSNPSTAPASASPLASTLKPSTANDTNGSSSSSSSNPRTSSPLASNAENKPPVAQQSPPVLLPTLPPIQTTTIQTSREVAPPPSSINSNRAASPFRPTSVSPQPSSPTKSLLFGARLDAIILREHSNIPNIVMQCTSQVENFGLNLQGIYRVPSSSARVNMLRSQFENNPLLQLHTPEDYENDVHAVADLLKIFFRELREPLIPDNHQRDFIDAGNVEDESRRRDAVHRAINDLPDANYSTIRHLTIHLAKIKENSDVNKMSTNNLAIIWGPTIIKQATIPEISSFSRTIEILIDYCFTIFDYD
notes: Rga7, F-BAR protein and Rho2 GAP of Schizosaccharomyces pombe; FL Rga7 in pET21a; also called Rga7-6His; not shown: His6, C-terminal, kept
